The target of test [1] is Recombinant GST-Tagged β-catenin (UniProt P35222). Nature of the test: pull-down; GST-β-catenin preloaded on Glutathione-Sepharose 4B, equimolar 6xHis-FKBP52 added, 1.5 h at 4°C; 50 mM HEPES pH 7.4, 50 mM KCl, 10 mM MgCl2, 0.01% Tween 20, 1 mM DTT; Western blot; both purified. (In general: In western blotting, separated proteins are transferred to a membrane and probed.)
The target in test [2] is β-catenin (endogenous, LNCaP) (human (endogenous in LNCaP)) (UniProt P35222). Nature of the test: co-IP; LNCaP lysates (RIPA buffer), anti-β-catenin antibody and protein A/G agarose, blots for AR and FKBP52; cells with or without 10 nM DHT and FKBP52 siRNA.

Chains of the proteins cited; added tags and fusions are not shown.
UniProt P35222: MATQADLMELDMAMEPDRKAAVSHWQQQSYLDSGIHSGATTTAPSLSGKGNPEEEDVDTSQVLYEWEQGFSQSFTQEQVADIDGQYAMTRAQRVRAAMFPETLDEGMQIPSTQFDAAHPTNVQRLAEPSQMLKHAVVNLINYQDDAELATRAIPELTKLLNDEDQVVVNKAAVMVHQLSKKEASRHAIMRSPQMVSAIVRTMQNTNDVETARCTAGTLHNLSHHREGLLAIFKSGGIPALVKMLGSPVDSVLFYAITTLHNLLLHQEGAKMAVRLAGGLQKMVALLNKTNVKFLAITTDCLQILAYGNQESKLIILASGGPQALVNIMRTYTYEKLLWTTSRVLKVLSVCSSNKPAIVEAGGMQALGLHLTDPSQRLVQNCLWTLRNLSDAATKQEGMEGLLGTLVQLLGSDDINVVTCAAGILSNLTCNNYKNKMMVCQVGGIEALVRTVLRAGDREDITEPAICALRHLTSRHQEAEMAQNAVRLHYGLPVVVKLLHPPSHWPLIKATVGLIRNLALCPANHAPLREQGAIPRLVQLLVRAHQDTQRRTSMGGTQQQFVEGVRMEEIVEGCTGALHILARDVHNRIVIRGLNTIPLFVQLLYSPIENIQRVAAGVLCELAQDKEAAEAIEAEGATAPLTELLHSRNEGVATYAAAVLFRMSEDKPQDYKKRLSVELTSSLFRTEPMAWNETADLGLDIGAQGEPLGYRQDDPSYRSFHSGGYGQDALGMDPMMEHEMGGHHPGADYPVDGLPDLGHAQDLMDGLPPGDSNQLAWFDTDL

This passage reports binding results from PMC4514735, “The FKBP52 Cochaperone Acts in Synergy with β-Catenin to Potentiate Androgen Receptor Signaling” (PLoS ONE, 2015).

No constants are given. Whether binding was seen depends on the method and setting. For some assays here: Binding seen in cells or lysates may run through a third protein. Some results given as binding are weak or reduced against the parent protein; the word gives no strength. For some assays here: Sequences can lack the tags named with a protein.

B1: recombinant C-terminal 6xhistidine-tagged FKBP52 protein (protein, UniProt Q02790 1-459)
chain: MTAEEMKATESGAQSAPLPMEGVDISPKQDEGVLKVIKREGTGTEMPMIGDRVFVHYTGWLLDGTKFDSSLDRKDKFSFDLGKGEVIKAWDIAIATMKVGEVCHITCKPEYAYGSAGSPPKIPPNATLVFEVELFEFKGEDLTEEEDGGIIRRIQTRGEGYAKPNEGAIVEVALEGYYKDKLFDQRELRFEIGEGENLDLPYGLERAIQRMEKGEHSIVYLKPSYAFGSVGKEKFQIPPNAELKYELHLKSFEKAKESWEMNSEEKLEQSTIVKERGTVYFKEGKYKQALLQYKKIVSWLEYESSFSNEEAQKAQALRLASHLNLAMCHLKLQAFSAAIESCNKALELDSNNEKGLFRRGEAHLAVNDFELARADFQKVLQLYPNNKAAKTQLAVCQQRIRRQLAREKKLYANMFERLAEEENKAKAEASSGDHPTDTEMKEEQKSNTAGSQSQVETEA
With B1, the binding entry in test [1] is reported as “binds”.

B2: FKBP52 (endogenous, LNCaP) (protein, UniProt Q02790 1-459)
chain: B1 chain
For the molecule B2, the binding entry in test [2] is recorded as “binds”.
